Results reported in PubChem BioAssay AID1347075 (National Center for Advancing Translational Sciences (NCATS), 2019).
“And” between values parts separate entries of the source, which are not always exact repeats. Equal values may be shown once. Hit rate of the full screen: of about 400,000 compounds, about 5,500 (1.4%) were called active. This list was built around the results that the source calls inconclusive (neither active nor inactive); the mix of calls is not that of the screen. The call rests on the fitted dose curve; in most records, active means well fitted cell-killing curve with a large enough effect; inconclusive means small, poorly fitted or top-dose-only effect, or effect the other way; inactive means flat fitted curve, though single readings scatter. A potency beside an inconclusive call is a rough fit, not a confirmed value.

Assay: qHTS assay for MDR1-selective chemotherapeutics: Primary screen using the parental adenocarcinoma cell KB-3-1; further: nearly all actives have a fitted effect of over 60% in size
Conditions: KB-3-1 viability, CellTiter-Glo ATP luminescence, 72 h; activity change, negative = cytotoxic: at 46.1 µM (top of the series)
How it was run: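 Viability of parental KB-3-1 cells, measured by CellTiter-Glo luminescence, followed a 72 h incubation at 37 °C with pinned compounds in phenol-red-free DMEM containing 10% FBS.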
On the % scale 0 is the no-effect control and ±100 the full control effect; potency means the concentration at half of the fitted maximal effect.

Structure (SMILES) | Potency | activity change, negative = cytotoxic
CCOc1ccccc1N1CCN(CC(=O)Nc2ccnn2C2CCCC2)CC1 | inactive | –
c1ccc(Cc2c(-c3ccccc3)nc3c4ccccc4ccn23)cc1 | inactive | –
CC(=O)c1sc(-c2ccc(F)cc2)cc1NS(=O)(=O)c1ccc(C)cc1 | inactive | –
Oc1ccc(-c2csc(Nc3ncccn3)n2)cc1O | inconclusive: 18.4 µM [cytotoxic, partial curve] | –
COc1ccc(CC(=O)NC(=S)NNC(=O)COc2c(C)cccc2C)cc1 | inconclusive: 16.4 µM [cytotoxic, partial curve, poor fit] | –
CCOc1ccc(S(=O)(=O)N(C)c2ccc(OCC(=O)Nc3nc4ccccc4s3)cc2)cc1 | inconclusive: 32.6 µM [cytotoxic, single point] | –
Cc1oc(C(C)(C)C)cc1C(=O)NCc1ccc2c(c1)OCO2 | inconclusive: 14.6 µM [rising, partial curve, poor fit] | –
Cc1ccc(-c2cn3c(n2)sc2cc(C(=O)NCCCN4CCCCC4)ccc23)cc1 | inconclusive: 2.59 µM [cytotoxic, full curve, poor fit] | –
CC1COc2ccccc2N1C(=O)c1ccc(F)cc1 (stereo not given) | – | inconclusive: -47.6%
COc1cc(SC)ccc1C(=O)NCCOc1ccc(Cl)cc1 | inactive | –
COc1ccc(OCC2c3cc(OC)c(OC)cc3CCN2C(=O)c2ccc(F)cc2)cc1 (stereo not given) | inactive | –
CCN1CCN(CCOc2ccc(Br)cc2C)CC1 | inactive | –
O=C(CCN1C(=O)/C(=C/c2ccccc2)SC1=S)N[C@@H](CO)Cc1ccccc1 | inconclusive: 25.9 µM [cytotoxic, single point] | –
C=CCN(c1ccccc1)S(=O)(=O)c1cccc(C(=O)NNC(=O)c2ccccc2O)c1 | inconclusive: 32.6 µM [cytotoxic, single point] | –
O=C(c1ccc(S(=O)(=O)N2CCCCC2)cc1)N1CCN(CCN2C(=O)c3cccc4cccc(c34)C2=O)CC1 | inconclusive: 29.1 µM [cytotoxic, single point] | –
CCOc1ccc(NC(=O)CN(C)C(=O)c2ccc3nc(CC)c(CC)nc3c2)cc1OCC | inconclusive: 0.651 µM [rising, full curve, poor fit] | –
CS(=O)(=O)N(CC(=O)N1CCN(Cc2ccc3c(c2)OCO3)CC1)C1CCCCC1 | inactive | –
COc1ccc(Nc2nc(N)nc(CSC(=S)N3CCCCC3C)n2)cc1 (stereo not given) | inactive | –
Cc1cc(C)cc(NC(=O)C2CCN(S(=O)(=O)c3ccc4c(c3)NC(=O)C(C)S4)CC2)c1 (stereo not given) | inactive | –
CC1=C(C(=O)Nc2ccc([N+](=O)[O-])cc2)C(c2cccc(C(F)(F)F)c2)NC(=S)N1c1ccccc1 (stereo not given) | inconclusive: 29.1 µM [cytotoxic, single point] | –
CC(NC(=O)c1ccc(OC2CCN(Cc3ccccn3)CC2)cc1)c1ccccc1 (stereo not given) | inconclusive: 20.6 µM [cytotoxic, single point] | –
c1ccc(N2CCN(Cc3nc4ccccc4[nH]3)CC2)nc1 | inactive | –
O=C1NC(c2cccc3ccccc23)Nc2ccccc21 (stereo not given) | active: 0.411 µM | –
CCCOc1cccc(-c2cc(C(=O)N/N=C/c3ccccn3)c3ccccc3n2)c1 | inconclusive: 20.6 µM [cytotoxic, single point] | –

Exported as tab-separated lines: entries from further up.
Structure (SMILES)	Potency	activity change, negative = cytotoxic
c1ccc(Cc2c(-c3ccccc3)nc3c4ccccc4ccn23)cc1	inactive	–
COc1ccc(Nc2nc(N)nc(CSC(=S)N3CCCCC3C)n2)cc1 (stereo not given)	inactive	–
CC(NC(=O)c1ccc(OC2CCN(Cc3ccccn3)CC2)cc1)c1ccccc1 (stereo not given)	inconclusive: 20.6 µM [cytotoxic, single point]	–

Remaining list, next part

Structure (SMILES) | Potency | activity change, negative = cytotoxic
CCN1CCN(c2cc(C)c3cc(NC(=O)c4cccc(C(F)(F)F)c4)ccc3n2)CC1 | inactive | –
COC(=O)c1ccccc1NC(=O)c1c(Br)cnn1C | inactive | –
O=C(NC1CCCC1)C1CCC(CNS(=O)(=O)c2cccs2)CC1 (stereo not given) | inactive | –
COC(=O)C1=C(C)N(Cc2ccccc2)C(=NCC(C)C)N[C@H]1c1ccccc1 | inconclusive: 18.4 µM [cytotoxic, single point] | –
CC(O)C1CCC2C3CCC4CC(O)CCC4(C)C3C(=O)CC12C (stereo not given) | inactive | –
O=C(COc1ccc(Cl)cc1)Nc1ncc([N+](=O)[O-])s1 | inconclusive: 29.1 µM [cytotoxic, single point] | –
COc1nc(N2CCCCCC2)nc(N2CCCCCC2)n1 | inconclusive: 18.4 µM [cytotoxic, single point] | –
C#CCOCCOCCOCCNc1nc(N2CCN(C(=O)CCCCCCCCCCNC(=O)[C@H]([C@@H](C)CC)n3cc(CCCCN=C(N)N)nn3)CC2)nc(N2CCN(C(=O)CCCCCCCCCCNC(=O)[C@H](CO)n3cc(CCCSC)nn3)CC2)n1 | inconclusive: 29.1 µM [cytotoxic, single point] | –
Cc1cnc(CN(C)C(=O)C2CCC(=O)N(CCc3cccc(F)c3)C2)[nH]1 (stereo not given) | inconclusive: 18.4 µM [rising, partial curve, poor fit] | –
Cn1nccc1CNC(=O)c1c(Cl)cnn1C | – | inconclusive: -66%
CC(C)C(=O)N1CCN(c2nc3ccc(Cl)cc3s2)CC1 | inconclusive: 23.1 µM [cytotoxic, single point] | –
CCSc1nnc(NC(=O)c2ccccn2)s1 | inconclusive: 5.01 µM [cytotoxic, full curve] | –
CCSc1nc2ccccc2n1C(=O)/C=C\c1ccc(OC)c(OC)c1 | inconclusive: 16.4 µM [cytotoxic, single point] | –
CCOc1cc(CNCCSc2nnnn2C)cc(Br)c1OCc1ccc(F)cc1 | inconclusive: 18.4 µM [cytotoxic, partial curve] | –
COc1ccc(CN(C(=S)Nc2ccccc2)C2CC(=O)N(c3ccccc3)C2=O)cc1 (stereo not given) | inactive | –
FC(F)(F)c1nnc(-c2ccccc2)nc1Sc1ccc(Cl)cc1 | inconclusive: 29.1 µM [cytotoxic, single point] | –
CSc1ncc(Cl)c(C(=O)Nc2ccc(S(=O)(=O)N3CCC(C)CC3)cc2)n1 | inconclusive: 18.4 µM [cytotoxic, partial curve, poor fit] | –
Oc1ccc2c(c1)OCC1(O)Cc3cc(O)c(O)cc3C21 (stereo not given) | inconclusive: 25.9 µM [cytotoxic, single point] | –
Nc1nc(N)nc(-c2ccc(Cl)c(Cl)c2)n1 | inactive | –
Cc1cc(C(=O)NCCc2ccc(Cl)cc2)c(C)o1 | inconclusive: 10.3 µM [rising, partial curve] | –
COCCn1c(SC(C)C(=O)Nc2ncc(Cl)cc2Cl)nc2ccccc21 (stereo not given) | inconclusive: 8.2 µM [cytotoxic, partial curve] | –
Cc1ccc(Cn2c(C(=O)Nc3cccc(Cl)c3)cc3sccc32)cc1 | inactive | –
CCOC(=O)c1cccc(NC(=O)c2ccc3c(c2)nnn3C2CCCC2)c1 | inactive | –
O=C(NCCn1cc(SCc2ccc(F)cc2)c2ccccc21)c1c(F)cccc1F | inconclusive: 18.4 µM [cytotoxic, partial curve, poor fit] and inconclusive: 29.1 µM [cytotoxic, single point] | –

2 compounds picked at random from those above:
Structure (SMILES) | Potency | activity change, negative = cytotoxic
CCSc1nnc(NC(=O)c2ccccn2)s1 | inconclusive: 5.01 µM [cytotoxic, full curve] | –
CC(C)C(=O)N1CCN(c2nc3ccc(Cl)cc3s2)CC1 | inconclusive: 23.1 µM [cytotoxic, single point] | –

(cont.)

Structure (SMILES) | Potency | activity change, negative = cytotoxic
COC(=O)C1C(c2ccccc2)C(C(=O)OCc2ccco2)C1c1ccccc1 (stereo not given) | inconclusive: 23.1 µM [cytotoxic, single point] | –
COc1cccc(CN2CCC2(C)C(=O)Nc2cccc(Oc3ccccc3)c2)c1F (stereo not given) | inconclusive: 20.6 µM [cytotoxic, single point] | –
O=S1(=O)CCN(Cc2ccccc2C(F)(F)F)CC1 | inactive | –
Cc1c(NC(=O)CSc2nc(N)cc(N)n2)c(=O)n(-c2ccccc2)n1C | inconclusive: 0.0092 µM [cytotoxic, full curve] | –
COc1cccc(C(=O)Nc2ccc(Cl)c(-c3nc4ccccc4[nH]3)c2)c1 | inconclusive: 18.4 µM [cytotoxic, partial curve] | –
CCOc1ccc(N2CC(NC(=O)c3ccc4ccccc4c3)CC2=O)cc1 (stereo not given) | inactive | –
O=C(Nc1ccccc1)c1nc[nH]c1C(=O)NCCCCCCNC(=O)c1[nH]cnc1C(=O)Nc1ccccc1 | inconclusive: 20.6 µM [cytotoxic, single point] | –
CN(CC(=O)Nc1ccccc1Br)C(=O)CCCSc1nc2ccccc2[nH]1 | inconclusive: 6.51 µM [rising, partial curve] | –
COc1cc(NC(=O)c2cc(-c3cccnc3)nc3ccc(Br)cc23)cc(OC)c1 | inconclusive: 32.6 µM [cytotoxic, single point] | –
CCN1CCN(c2ccc(NC(=O)COc3ccccc3Cl)cc2)CC1 | inactive | –
CCn1c(SCc2nc3ccccc3s2)nnc1-c1cccs1 | inactive | –
O=C(O)C1C2C=CC(C2)C1C(=O)NCc1ccoc1 (stereo not given) | – | inconclusive: -30.9% [cytotoxic]
CS(=O)(=O)Nc1cccc(S(=O)(=O)N2CCN(C(=O)c3ccccc3)CC2)c1 | inactive | –
CCc1ccc(Nc2n[n+](-c3ccccc3)c(-c3cccc(Cl)c3Cl)s2)cc1 | – | inconclusive: -110%
Cc1ccc(CN2C(=O)c3ccccc3C2c2nnnn2-c2ccc3c(c2)OCCO3)cc1 (stereo not given) | inconclusive: 29.1 µM [cytotoxic, single point] | –
COc1ccnc(CSC(N)=Nc2cccc(C(F)(F)F)c2)c1 | inconclusive: 29.1 µM [cytotoxic, single point] | –
CC(=O)c1ccc(NS(=O)(=O)c2cc(-c3cnc(C4CC4)o3)ccc2C)cc1 | inconclusive: 4.61 µM [cytotoxic, full curve] and inconclusive: 29.1 µM [cytotoxic, single point] | –
O=C(ONC1=NCCCCC1)c1ccc(Cl)cc1 | inactive | –
CCOC(=O)N1CCC(NC(=O)c2cc3c(=O)n(C)c4ccccc4c3n2C)CC1 | inactive | –
S=c1[nH]c2ccccc2n1CCOc1ccccc1 | inactive | –
CN(C)c1ccc(N=Cc2cccn2C)cc1 | inconclusive: 20.6 µM [cytotoxic, partial curve] | –
Cc1onc(-c2c(F)cccc2Cl)c1C(=O)c1ccccc1O | inconclusive: 29.1 µM [cytotoxic, single point] | –
